Assay results as given in patent US10954277B2, “Materials and methods for treating cancer” (Mayo Foundation for Medical Education and Research, priority 2016, dated 2021).

System: LNCaP cells
Assay: Immunofluorescent cytochemistry of cellular localization of FOXO1-IQBP peptides
Format: cell-based, human
Details: LNCaP cells transfected with HA-tagged peptide plasmids

## NDDFDNWSTFRPRTSSNASTISGRLSPIMT (HA-tagged FOXO1-derived IQGAP1-binding peptide) [S319]
  cellular localization of the peptide: ubiquitously expressed in both cytoplasm and nucleus
